# In patent US20150259331A1, “PROTOZOAN PARASITE GROWTH INHIBITORS” (Northeastern University, priority 2014, published 2015):
# At least one structure is not confirmed: it was looked up by name or label, or the drawing left a doubt. Some results were stated once for a whole list of compounds, not compound by compound.
# Test system: HepG2 cells
# Test: HepG2 cell toxicity (MTT) assay
# Assay type: cell-based
# Settings: Table 13; read-out: HepG2 TC50
# Procedure: Then 2 μL of DMSO (control) or different concentrations of drugs prepared from 200× DMSO stocks were added to the cultures. […] All experiments were repeated thrice in independent studies where each dose was administered in duplicate (total n=6). HepG2 Cell Toxicity Assay. The 384 well MTT cytotoxicity assay is a modification of the MTT method described by Ferrari et al. optimized for 384-well throughput, with modifications described below.
# HepG2 Cell Toxicity assay. The 384 well MTT cytotoxicity assay is a modification of the MTT method described by Ferrari et al.^1 ENREF—26_ENREF—26_ENREF—26 optimized for 384 well throughput. […] 4.25 μL of diluted test compound was then added to the 38.3 μL of media in each well providing a 10 fold final dilution of compound. […] After a 48 hour incubation period, 8 μL of a 1.5 mg/ml solution of MTT diluted in complete MEM media was added to each well. All plates were subsequently incubated in the dark for 1 hour at room temperature. After incubation, the media and drugs in each well was removed by shaking plate over sink, the plates are then left to dry in hood for 15 minutes. […] Plates are put on a 3-D rotator for 15-30 minutes. Absorbance was determined in all wells using a Tecan iControl 1.6 Infinite plate reader.
row,Structure (SMILES),CC50 [µM]
1,"CN1CCN(S(=O)(=O)c2ccc(-c3ccc4ccnc(Nc5ccc(OCc6cccc(F)c6)c(Cl)c5)c4c3)cc2)CC1 [NEU-950, N-(3-Chloro-4-((3-fluorobenzyl)oxy)phenyl)-7-(4-((4-methylpiperazin-1-yl)sulfonyl)phenyl)isoquinolin-1-amine]",> 15
2,"CN1CCN(S(=O)(=O)c2ccc(-c3ccc4c(Nc5ccc(OCc6cccc(F)c6)c(Cl)c5)nccc4c3)cc2)CC1 [NEU-951, N-(3-Chloro-4-((3-fluorobenzyl)oxy)phenyl)-6-(4-((4-methylpiperazin-1-yl)sulfonyl)phenyl)isoquinolin-1-amine]",> 15
3,"CN1CCCN(S(=O)(=O)c2ccc(-c3ccc4ccnc(Nc5ccc(OCc6cccc(F)c6)c(Cl)c5)c4c3)cc2)CC1 [NEU-962, N-(3-Chloro-4-((3-fluorobenzyl)oxy)phenyl)-7-(4-((4-methyl-1,4-diazepan-1-yl)sulfonyl)phenyl)isoquinolin-1-amine]",> 15
4,"CN1CCCN(S(=O)(=O)c2ccc(-c3ccc4c(Nc5ccc(OCc6cccc(F)c6)c(Cl)c5)nccc4c3)cc2)CC1 [NEU-963, N-(3-Chloro-4-((3-fluorobenzyl)oxy)phenyl)-6-(4-((4-methyl-1,4-diazepan-1-yl)sulfonyl)phenyl)isoquinolin-1-amine]",> 15
5,CN1CCN(S(=O)(=O)c2ccc(-c3ccc4ncc(C#N)c(Nc5ccc(OCc6cccc(F)c6)c(Cl)c5)c4c3)cc2)CC1 [NEU-993],> 15
6,"CN1CCN(S(=O)(=O)c2ccc(-c3ccc4nncc(Nc5ccc(OCc6cccc(F)c6)c(Cl)c5)c4c3)cc2)CC1 [NEU-1003, N-(3-Chloro-4-((3-fluorobenzyl)oxy)phenyl)-6-(4-((4-methylpiperazin-1-yl)sulfonyl)phenyl)cinnolin-4-amine]",> 15
7,"CN1CCN(S(=O)(=O)c2ccc(-c3ccc4c(Nc5ccc(OCc6cccc(F)c6)c(Cl)c5)cnnc4c3)cc2)CC1 [NEU-1016, N-(3-Chloro-4-((3-fluorobenzyl)oxy)phenyl)-7-(4-((4-methylpiperazin-1-yl)sulfonyl)phenyl)cinnolin-4-amine]",> 15
8,"Fc1cccc(COc2ccc(Nc3nncc4ccc(-c5cccc(N6CCOCC6)c5)cc34)cc2Cl)c1 [NEU-1035, N-(3-Chloro-4-((3-fluorobenzyl)oxy)phenyl)-7-(3-morpholinophenyl)phthalazin-1-amine]",> 15
9,"Fc1cccc(COc2ccc(Nc3nncc4cc(-c5cccc(N6CCOCC6)c5)ccc34)cc2Cl)c1 [NEU-1037, N-(3-Chloro-4-((3-fluorobenzyl)oxy)phenyl)-6-(3-morpholinophenyl)phthalazin-1-amine]",> 15

# Test system: T. cruzi
# Test: T. cruzi growth inhibition
# Assay type: cell-based, Trypanosoma cruzi
# Settings: not given
row,Structure (SMILES),EC50 [µM]
1,CN1CCN(S(=O)(=O)c2ccc(-c3ccc4ncc(C#N)c(Nc5ccc(OCc6cccc(F)c6)c(Cl)c5)c4c3)cc2)CC1 [NEU-993],> 50

# Test system: T. brucei brucei Lister 427
# Test: not given
# Settings: published activities of HAT treatments and SCYX-7158; read-out: Tbb EC50; cited from earlier work
row,Structure (SMILES),EC50 [µM]
1,NCCCC(N)(C(=O)O)C(F)F (stereo not drawn) [eflornithine],16.4

# Test system: L. major amastigote
# Test: L. major amastigote assay
# Assay type: cell-based
# Settings: not given
row,Structure (SMILES),EC50 [µM]
1,CN1CCN(S(=O)(=O)c2ccc(-c3ccc4ncc(C#N)c(Nc5ccc(OCc6cccc(F)c6)c(Cl)c5)c4c3)cc2)CC1 [NEU-993],> 15
